The text below walks through data of patent US8530491B2, “Antimalarial compounds with flexible side-chains” (Medicines for Malaria Venture (MMV), priority 2007, dated 2013).

The data set deals with African green monkey kidney fibroblast (Vero) cells. Kind of data set: Cytotoxicity in mammalian cells. The format is cell-based. The conditions noted are these: for IC50 ratio Vero/TM4: Vero IC50 / P. falciparum TM4 IC50; for IC50 ratio Vero/V1/S: Vero IC50 / P. falciparum V1/S IC50.

Molecules are shown by their SMILES.

`CCc1nc(N)nc(N)c1OCCCOc1ccccc1OCCCC(=O)O` [Compound P135, 2,4-diamino-6-ethyl-5-(3-(2-(3-carboxypropoxy)phenoxy)propoxy)pyrimidine]: the “IC50 ratio Vero/TM4” value is recorded as greater than 6000 and the “IC50 ratio Vero/V1/S” value is on record as greater than 260.
Take `CCOC(=O)CCCOc1ccccc1OCCCOc1c(N)nc(N)nc1CC` [Compound P217, 2,4-diamino-6-ethyl-5-(3-(2-(3-ethoxycarbonylpropoxy)phenoxy)propoxy)pyrimidine]: the “IC50 ratio Vero/TM4” value is listed as 1380.
In the case of `CCOC(=O)CCc1ccccc1OCCCOc1c(N)nc(N)nc1CC` [Compound P195, 2,4-diamino-6-ethyl-5-(3-(2-(2-ethoxycarbonylethyl)phenoxy)propoxy)pyrimidine], the “IC50 ratio Vero/TM4” value is on record as 500 and the “IC50 ratio Vero/V1/S” value stood at 18.
The like results for `CCc1nc(N)nc(N)c1OCCCOc1cc(C)nc2cc(F)ccc12` [Compound P157, 2,4-diamino-6-ethyl-5-(3-(7-fluoro-2-methylquinolin-4-yloxy)propoxy)pyrimidine] were, in that order, 42 and 3.
Regarding `CCc1nc(N)nc(N)c1OCCCOc1ccnc2ccc(F)cc12` [Compound P153, 2,4-diamino-6-ethyl-5-(3-(6-fluoro-quinolin-4-yloxy)propoxy)pyrimidine], the “IC50 ratio Vero/TM4” value is recorded as 149 and the “IC50 ratio Vero/V1/S” value stood at 8.
With `CCc1nc(N)nc(N)c1OCCCOc1ccnc2ccccc12` [Compound P113, 2,4-diamino-6-ethyl-5-(3-(quinolin-4-yloxy)propoxy)pyrimidine], the “IC50 ratio Vero/TM4” value is 32 and the “IC50 ratio Vero/V1/S” value came to 2.
Consider `CCc1nc(N)nc(N)c1OCCCOc1cc(C)nc2ccc(OCCCC(=O)O)cc12` [Compound P169, 2,4-diamino-6-ethyl-5-(3-(6-(3-carboxypropoxy)-2-methylquinolin-4-yloxy)propoxy)pyrimidine], for which the “IC50 ratio Vero/TM4” value is 1405 and the “IC50 ratio Vero/V1/S” value is 134.
With `CCc1nc(N)nc(N)c1OCCCOc1ccccc1CCC(=O)O` [Compound P218, 2,4-diamino-6-ethyl-5-(3-(2-(2-carboxyethyl)phenoxy)propoxy)pyrimidine], the “IC50 ratio Vero/TM4” value is on record as greater than 1620.
`CCc1nc(N)nc(N)c1OCCCOc1cc(C)nc2ccccc12` [Compound P154, 2,4-diamino-6-ethyl-5-(3-(2-methylquinolin-4-yloxy)propoxy)pyrimidine]: the “IC50 ratio Vero/TM4” value worked out at 38 and the “IC50 ratio Vero/V1/S” value is given as 4.
